Measured values taken from PMC7930037.
These are yes or no findings as the source states them, for the method shown. Where a sequence is shown, tags or fusion partners need not be part of it.

The chains behind the UniProt entries cited, without tags or fusion partners.
UniProt P54619: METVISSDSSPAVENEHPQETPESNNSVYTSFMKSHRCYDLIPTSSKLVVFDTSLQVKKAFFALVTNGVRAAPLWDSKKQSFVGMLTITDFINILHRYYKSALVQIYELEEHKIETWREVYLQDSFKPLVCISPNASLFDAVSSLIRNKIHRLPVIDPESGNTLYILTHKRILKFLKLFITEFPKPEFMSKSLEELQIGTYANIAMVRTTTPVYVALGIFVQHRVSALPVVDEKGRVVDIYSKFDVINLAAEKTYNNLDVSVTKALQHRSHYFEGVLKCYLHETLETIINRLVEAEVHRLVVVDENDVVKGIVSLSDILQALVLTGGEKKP

Columns and labels:
GST-tagged WBP2 = molecular target: T1, GST-tagged WBP2 (UniProt Q969T9); test: pull-down; GST fusion from E. coli extract on glutathione-Sepharose 4B beads (2 h, 4 °C), incubated with purified Flag-tagged protein; eluted with 20 mM reduced glutathione; anti-Flag blot; purified GST as control; both purified
T1 sequence: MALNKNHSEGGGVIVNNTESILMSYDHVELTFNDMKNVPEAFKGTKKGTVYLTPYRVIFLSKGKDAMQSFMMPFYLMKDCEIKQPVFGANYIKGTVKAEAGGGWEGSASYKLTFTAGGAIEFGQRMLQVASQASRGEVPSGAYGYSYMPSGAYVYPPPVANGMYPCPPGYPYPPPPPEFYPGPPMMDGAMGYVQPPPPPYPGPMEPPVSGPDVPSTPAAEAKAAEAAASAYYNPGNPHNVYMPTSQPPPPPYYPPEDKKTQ

GST-AMPKγ1 = GST-AMPKγ1 (UniProt P54619); test: as above

Molecule: Flag-tagged AMPKγ1 (from UniProt P54619 1-331)
- binding (GST-tagged WBP2): no binding

B1: Flag-tagged WBP2 (protein, UniProt Q969T9 1-261)
chain: MALNKNHSEGGGVIVNNTESILMSYDHVELTFNDMKNVPEAFKGTKKGTVYLTPYRVIFLSKGKDAMQSFMMPFYLMKDCEIKQPVFGANYIKGTVKAEAGGGWEGSASYKLTFTAGGAIEFGQRMLQVASQASRGEVPSGAYGYSYMPSGAYVYPPPVANGMYPCPPGYPYPPPPPEFYPGPPMMDGAMGYVQPPPPPYPGPMEPPVSGPDVPSTPAAEAKAAEAAASAYYNPGNPHNVYMPTSQPPPPPYYPPEDKKTQ
- binding (GST-AMPKγ1): no binding
